From PMC10664548
These are yes or no findings as the source states them, for the method shown. Some results given as binding are weak or reduced against the parent protein; the word gives no strength.

What was measured:
[1] = biological target: LI1159 (putative T3SS minor translocon protein), yeast two-hybrid fusions AD-HA-LI1159 and BD-c-Myc-LI1159 (Lawsonia intracellularis) (UniProt Q1MP64); test: two-hybrid; S. cerevisiae Y2H Gold co-transformed with pGADT7 (AD) and pGBKT7 (BD) plasmids; serial dilution patch tests on selective medium (Leu-, Trp-; growth control) and low-stringency medium (Leu-, Trp-, His-)
[2] = biological target: LI1157 (putative class II chaperone of translocon proteins), yeast two-hybrid fusion AD-HA-LI1157 (Lawsonia intracellularis) (UniProt Q1MP66); test: as above

Which results are given for “LI1159 (putative T3SS minor translocon protein), yeast two-hybrid fusions AD-HA-LI1159 and BD-c-Myc-LI1159 (from UniProt Q1MP64 1-265)”?
binding [1]: binds; binding [2]: binds
